Measurements as given in US20230303695A1.
Results are given in words; binding and its absence hold for the method and conditions named. Some results given as binding are weak or reduced against the parent protein; the word gives no strength. For some of these results: Tags and fused reporters may be left off the sequences shown. Each block holds one binder with its values, some of them ahead of it.

Sequences of proteins named here, by UniProt entry; tags and fusion partners are left off. A change or cut given only in a name is not applied to a line headed by its entry. Residues count along the entry.
UniProt P43630: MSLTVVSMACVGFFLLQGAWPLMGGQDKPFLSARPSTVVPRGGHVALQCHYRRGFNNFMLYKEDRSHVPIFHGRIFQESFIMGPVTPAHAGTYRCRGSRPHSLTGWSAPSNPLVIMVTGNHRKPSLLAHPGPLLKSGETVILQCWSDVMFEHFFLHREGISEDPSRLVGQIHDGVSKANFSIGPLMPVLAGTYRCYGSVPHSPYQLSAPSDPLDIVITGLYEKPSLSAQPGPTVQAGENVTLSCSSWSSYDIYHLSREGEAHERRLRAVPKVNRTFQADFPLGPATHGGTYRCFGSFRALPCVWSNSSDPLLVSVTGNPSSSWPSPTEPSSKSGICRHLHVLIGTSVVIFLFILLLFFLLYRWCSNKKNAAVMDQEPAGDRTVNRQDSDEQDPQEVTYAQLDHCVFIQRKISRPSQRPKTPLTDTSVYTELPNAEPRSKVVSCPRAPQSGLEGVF
KIR3DL2 expressed on cells: residues 22-455 of P43630
KIR3DL2 D12 construct on CT26 cells: residues 22-221 of P43630
UniProt P26715: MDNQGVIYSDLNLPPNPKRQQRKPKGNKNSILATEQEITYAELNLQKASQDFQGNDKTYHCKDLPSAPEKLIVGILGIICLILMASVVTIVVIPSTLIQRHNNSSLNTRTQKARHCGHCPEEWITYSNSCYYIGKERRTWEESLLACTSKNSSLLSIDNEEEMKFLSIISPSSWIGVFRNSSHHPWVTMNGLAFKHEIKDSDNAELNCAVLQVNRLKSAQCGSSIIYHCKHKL
UniProt P43629: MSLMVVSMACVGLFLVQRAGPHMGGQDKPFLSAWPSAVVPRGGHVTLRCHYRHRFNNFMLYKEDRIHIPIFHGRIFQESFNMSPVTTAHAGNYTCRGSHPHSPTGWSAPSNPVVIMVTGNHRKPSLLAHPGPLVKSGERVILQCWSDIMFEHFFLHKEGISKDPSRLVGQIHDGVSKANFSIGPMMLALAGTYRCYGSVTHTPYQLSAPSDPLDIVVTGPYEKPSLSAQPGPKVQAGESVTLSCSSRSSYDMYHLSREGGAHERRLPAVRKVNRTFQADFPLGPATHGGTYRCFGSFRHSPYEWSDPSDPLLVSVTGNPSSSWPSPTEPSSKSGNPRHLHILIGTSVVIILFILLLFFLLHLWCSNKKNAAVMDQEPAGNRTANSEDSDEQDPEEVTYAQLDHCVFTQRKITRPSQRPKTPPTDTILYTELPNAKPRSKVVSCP
KIR3DL1 expressed on CT26 cells: residues 22-444 of P43629
KIR3DL1 D12 construct on CT26 cells: residues 22-221 of P43629

Assays:
[1] = molecular target: KIR3DL2 expressed on cells (human) (UniProt P43630); assay: FACS on receptor-expressing cells (FIG. 17E)
[2] = molecular target: KLRC1/KLRD1 heterodimer expressed on CT26 cells (UniProt P26715); assay: FACS on receptor-expressing cells (FIG. 17E)
[3] = molecular target: KIR3DL1 expressed on CT26 cells (human) (UniProt P43629); assay: FACS on receptor-expressing cells (FIG. 17E)
[4] = molecular target: KIR3DL2 expressed on cells (human) (UniProt P43630); assay: FACS, hFc-tagged proteins on CT26 cells expressing the receptor, MFI normalized to Thy1.1
[5] = molecular target: KLRC1/KLRD1 heterodimer expressed on CT26 cells (UniProt P26715); assay: as above
[6] = molecular target: KIR3DL1 expressed on CT26 cells (human) (UniProt P43629); assay: as above
[7] = molecular target: KLRC1/KLRD1 heterodimer expressed on CT26 cells (UniProt P26715); assay: FACS cell-cell conjugate assay, CFSE-labelled MC38-IGSF8 mixed 1:1 with Far Red-labelled CT26-KLRC1+KLRD1
[8] = molecular target: KLRC1/KLRD1 heterodimer expressed on CT26 cells (UniProt P26715); assay: FACS on CT26 cells, 5 ug/mL, anti-human Fc-PE
[9] = molecular target: KLRC1/KLRD1 heterodimer expressed on CT26 cells (UniProt P26715); assay: FACS (FIG. 17D)
[10] = molecular target: KIR3DL1 D12 construct on CT26 cells (human) (UniProt P43629); assay: FACS, biotin-labelled IGSF8 on CT26 cells
[11] = molecular target: KIR3DL2 D12 construct on CT26 cells (human) (UniProt P43630); assay: FACS, biotin-labelled IGSF8 on CT26 cells
[12] = molecular target: KLRC1/KLRD1 heterodimer expressed on CT26 cells (UniProt P26715); assay: FACS, IGSF8-hFc on CT26 cells, MFI normalized to Thy1.1

binding [1]: binds | binding [2]: binds | binding [3]: binds | binding [4]: binds | binding [5]: binds | binding [6]: binds
B1: D1 domain of IGSF8 (recombinant protein) (ligand, human, UniProt Q969P0 28-149, looked up)
chain: REVLVPEGPLYRVAGTAVSISCNVTGYEGPAQQNFEWFLYRPEAPDTALGIVSTKDTQFSYAVFKSRVVAGEVQVQRLQGDAVVLKIARLQAQDAGIYECHTPSTDTRYLGSYSGKVELRVL

binding [7]: binds
B2: human IGSF8 expressed on the cell surface (ligand, UniProt Q969P0 28-613, looked up)
chain: REVLVPEGPLYRVAGTAVSISCNVTGYEGPAQQNFEWFLYRPEAPDTALGIVSTKDTQFSYAVFKSRVVAGEVQVQRLQGDAVVLKIARLQAQDAGIYECHTPSTDTRYLGSYSGKVELRVLPDVLQVSAAPPGPRGRQAPTSPPRMTVHEGQELALGCLARTSTQKHTHLAVSFGRSVPEAPVGRSTLQEVVGIRSDLAVEAGAPYAERLAAGELRLGKEGTDRYRMVVGGAQAGDAGTYHCTAAEWIQDPDGSWAQIAEKRAVLAHVDVQTLSSQLAVTVGPGERRIGPGEPLELLCNVSGALPPAGRHAAYSVGWEMAPAGAPGPGRLVAQLDTEGVGSLGPGYEGRHIAMEKVASRTYRLRLEAARPGDAGTYRCLAKAYVRGSGTRLREAASARSRPLPVHVREEGVVLEAVAWLAGGTVYRGETASLLCNISVRGGPPGLRLAASWWVERPEDGELSSVPAQLVGGVGQDGVAELGVRPGGGPVSVELVGPRSHRLRLHSLGPEDEGVYHCAPSAWVQHADYSWYQAGSARSGPVTVYPYMHALDTLFVPLLVGTGVALVTGATVLGTITCCFMKRLRKR

binding [8]: binds | binding [5]: binds | binding [9]: binds | binding [10]: binds | binding [11]: binds | binding [12]: binds
B3: recombinant human IGSF8 extracellular domain tagged by a human Fc region (IGSF8-hFc) (Fc fusion, not shown: a dimerising Fc or GST)
chain: REVLVPEGPLYRVAGTAVSISCNVTGYEGPAQQNFEWFLYRPEAPDTALGIVSTKDTQFSYAVFKSRVVAGEVQVQRLQGDAVVLKIARLQAQDAGIYECHTPSTDTRYLGSYSGKVELRVLPDVLQVSAAPPGPRGRQAPTSPPRMTVHEGQELALGCLARTSTQKHTHLAVSFGRSVPEAPVGRSTLQEVVGIRSDLAVEAGAPYAERLAAGELRLGKEGTDRYRMVVGGAQAGDAGTYHCTAAEWIQDPDGSWAQIAEKRAVLAHVDVQTLSSQLAVTVGPGERRIGPGEPLELLCNVSGALPPAGRHAAYSVGWEMAPAGAPGPGRLVAQLDTEGVGSLGPGYEGRHIAMEKVASRTYRLRLEAARPGDAGTYRCLAKAYVRGSGTRLREAASARSRPLPVHVREEGVVLEAVAWLAGGTVYRGETASLLCNISVRGGPPGLRLAASWWVERPEDGELSSVPAQLVGGVGQDGVAELGVRPGGGPVSVELVGPRSHRLRLHSLGPEDEGVYHCAPSAWVQHADYSWYQAGSARSGPVTVYPYMHALDT
modifications: biotin label in Examples 17, 18 and 28 (site not given)
